The source of these data is publication PMC10482915, “Hornerin mediates phosphorylation of the polo-box domain in Plk1 by Chk1 to induce death in mitosis” (Cell Death and Differentiation, 2023).

By UniProt entry, the sequences of proteins in these tests, tags left out.
UniProt Q86YZ3: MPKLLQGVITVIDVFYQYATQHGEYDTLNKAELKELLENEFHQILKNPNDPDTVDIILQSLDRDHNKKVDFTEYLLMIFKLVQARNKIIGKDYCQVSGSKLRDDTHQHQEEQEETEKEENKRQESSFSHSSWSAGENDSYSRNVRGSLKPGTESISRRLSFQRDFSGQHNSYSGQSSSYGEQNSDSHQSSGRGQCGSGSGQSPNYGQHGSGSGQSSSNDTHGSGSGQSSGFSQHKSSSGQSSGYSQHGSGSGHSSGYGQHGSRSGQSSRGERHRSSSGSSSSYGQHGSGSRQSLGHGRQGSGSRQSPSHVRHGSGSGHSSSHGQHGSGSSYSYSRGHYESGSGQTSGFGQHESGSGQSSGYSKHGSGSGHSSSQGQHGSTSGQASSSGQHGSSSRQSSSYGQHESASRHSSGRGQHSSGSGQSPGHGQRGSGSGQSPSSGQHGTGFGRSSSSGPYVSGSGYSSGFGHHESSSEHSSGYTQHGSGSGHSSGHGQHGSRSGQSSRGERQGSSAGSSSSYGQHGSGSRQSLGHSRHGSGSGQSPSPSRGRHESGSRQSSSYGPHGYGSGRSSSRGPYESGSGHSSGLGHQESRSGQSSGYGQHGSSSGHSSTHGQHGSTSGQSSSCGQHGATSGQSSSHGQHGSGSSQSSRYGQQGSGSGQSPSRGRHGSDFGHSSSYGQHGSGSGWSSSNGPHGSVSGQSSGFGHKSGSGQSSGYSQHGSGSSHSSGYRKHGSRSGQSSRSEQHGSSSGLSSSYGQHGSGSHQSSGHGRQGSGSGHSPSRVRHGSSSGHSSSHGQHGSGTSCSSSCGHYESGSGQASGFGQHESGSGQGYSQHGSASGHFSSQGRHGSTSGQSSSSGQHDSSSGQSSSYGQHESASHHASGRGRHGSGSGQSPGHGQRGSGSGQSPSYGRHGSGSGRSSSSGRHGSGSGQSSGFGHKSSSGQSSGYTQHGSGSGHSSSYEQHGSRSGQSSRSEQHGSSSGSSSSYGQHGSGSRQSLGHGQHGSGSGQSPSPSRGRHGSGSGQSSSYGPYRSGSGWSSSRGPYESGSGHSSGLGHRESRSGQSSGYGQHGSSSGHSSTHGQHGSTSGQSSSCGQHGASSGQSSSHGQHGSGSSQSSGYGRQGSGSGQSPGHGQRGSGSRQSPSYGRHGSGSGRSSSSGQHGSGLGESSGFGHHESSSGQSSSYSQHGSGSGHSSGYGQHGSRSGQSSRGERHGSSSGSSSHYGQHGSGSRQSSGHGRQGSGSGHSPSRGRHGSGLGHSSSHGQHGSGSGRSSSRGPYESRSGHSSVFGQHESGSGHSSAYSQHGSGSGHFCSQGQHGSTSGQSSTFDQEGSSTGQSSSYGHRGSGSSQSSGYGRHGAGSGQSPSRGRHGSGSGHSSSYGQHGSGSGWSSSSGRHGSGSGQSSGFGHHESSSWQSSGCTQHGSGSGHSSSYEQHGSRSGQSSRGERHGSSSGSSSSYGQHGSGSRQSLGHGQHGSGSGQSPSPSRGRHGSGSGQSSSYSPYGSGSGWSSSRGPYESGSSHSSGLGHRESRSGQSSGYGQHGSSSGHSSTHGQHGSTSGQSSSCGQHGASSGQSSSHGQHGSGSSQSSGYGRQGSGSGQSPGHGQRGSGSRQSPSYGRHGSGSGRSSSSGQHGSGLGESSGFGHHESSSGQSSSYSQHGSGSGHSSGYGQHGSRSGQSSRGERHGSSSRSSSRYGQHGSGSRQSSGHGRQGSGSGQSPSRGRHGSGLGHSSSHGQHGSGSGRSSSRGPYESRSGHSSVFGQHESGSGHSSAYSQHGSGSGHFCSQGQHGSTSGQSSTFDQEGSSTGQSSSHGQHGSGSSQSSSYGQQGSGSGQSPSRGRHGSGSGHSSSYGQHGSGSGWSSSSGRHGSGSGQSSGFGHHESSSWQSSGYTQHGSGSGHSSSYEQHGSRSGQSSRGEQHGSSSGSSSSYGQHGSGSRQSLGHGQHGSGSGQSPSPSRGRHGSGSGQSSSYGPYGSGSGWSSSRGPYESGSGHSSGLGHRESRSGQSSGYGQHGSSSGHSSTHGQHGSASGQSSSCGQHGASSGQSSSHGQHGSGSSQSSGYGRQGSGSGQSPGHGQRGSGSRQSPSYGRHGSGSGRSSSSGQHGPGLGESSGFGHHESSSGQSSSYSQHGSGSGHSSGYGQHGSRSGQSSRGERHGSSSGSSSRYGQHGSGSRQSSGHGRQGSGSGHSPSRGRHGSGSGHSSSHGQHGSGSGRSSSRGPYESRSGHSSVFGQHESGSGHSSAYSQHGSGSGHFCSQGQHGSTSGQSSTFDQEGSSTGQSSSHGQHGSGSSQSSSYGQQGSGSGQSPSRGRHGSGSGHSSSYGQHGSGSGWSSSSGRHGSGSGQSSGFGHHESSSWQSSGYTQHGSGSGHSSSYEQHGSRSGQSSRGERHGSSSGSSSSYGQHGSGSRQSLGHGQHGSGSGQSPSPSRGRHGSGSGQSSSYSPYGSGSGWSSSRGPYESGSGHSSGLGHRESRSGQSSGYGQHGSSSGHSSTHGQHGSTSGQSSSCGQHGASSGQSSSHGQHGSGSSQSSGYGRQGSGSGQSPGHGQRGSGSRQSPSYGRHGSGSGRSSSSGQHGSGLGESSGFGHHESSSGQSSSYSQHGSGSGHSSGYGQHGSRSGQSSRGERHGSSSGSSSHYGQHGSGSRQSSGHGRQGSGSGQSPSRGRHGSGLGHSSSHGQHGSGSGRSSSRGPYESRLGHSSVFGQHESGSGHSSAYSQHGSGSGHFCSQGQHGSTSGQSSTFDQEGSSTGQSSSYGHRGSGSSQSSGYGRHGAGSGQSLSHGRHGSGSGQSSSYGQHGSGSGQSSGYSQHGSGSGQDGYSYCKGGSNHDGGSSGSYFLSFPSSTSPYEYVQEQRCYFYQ

These are yes or no findings as the source states them, for the method shown. Binding seen in cells or lysates may run through a third protein. These calls come from enrichment with a bait or labelling near it, and not all partners need be listed.

In the experiment the target is GFP-S-Plk1 (UniProt P53350). Put plainly: affinity purification with mass spectrometry; tandem purification of GFP-S-Plk1 from HeLa S3 lysate: anti-GFP beads, TEV release, S-protein agarose, urea elution; mass spectrometry.

Turning to “hornerin, endogenous (from UniProt Q86YZ3 1-2850)”, the binding entry is reported as “binds”.
